In the experiment the target is Bacillus PS3 ATP synthase subunit δ (Bacillus PS3) (UniProt P09220). The experiment in a line: cryo-EM structure; intact Bacillus PS3 ATP synthase in GDN, three rotational states at 3.0, 3.0 and 3.2 Å; focused refinement of the membrane-embedded region at 3.3 Å; both purified.

Sequences of proteins named here, by UniProt entry; tags and fusion partners are left off. A change or cut given only in a name is not applied to a line headed by its entry.
UniProt P09220: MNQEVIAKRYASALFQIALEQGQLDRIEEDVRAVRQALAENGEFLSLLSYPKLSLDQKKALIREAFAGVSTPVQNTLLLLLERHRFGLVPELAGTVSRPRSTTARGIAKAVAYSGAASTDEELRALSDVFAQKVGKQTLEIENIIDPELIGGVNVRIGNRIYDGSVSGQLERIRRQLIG

These are yes or no findings as the source states them, for the method shown. Some entries that bind do so weakly or less than the wild type.

B1: Bacillus PS3 ATP synthase subunit b (protein, UniProt P09221 12-160)
chain: EAAHGISGGTIIYQLLMFIILLALLRKFAWQPLMNIMKQREEHIATKSTRRKNDRQEAEKLLEEQRELMKQSRQEAQALIENAASLAEEQKEQIVASARAEAERVKEAAKKEIEREKEQAMAALREQVASLSVLIASKVIEKELTEQDQ
For the molecule B1, the binding result is “binds”.

The values are drawn from PMC6377231.
